# Data published in PubChem BioAssay AID2685 (National Center for Advancing Translational Sciences (NCATS), 2010).
# The other results are listed elsewhere or left out. The main result of the screen is listed elsewhere. These columns were measured beside it and carry no call. Compounds called inactive in the main read-out are mostly missing here. The note in brackets gives the kind of curve behind each potency; many fits are weak.
# Test: qHTS Assay for Lipid Storage Modulators in Drosophila S3 Cells;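 on cell number change: cells counted by Cell Tracker Red CMTPX staining in the red channel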
# Details: BODIPY lipid droplet fluorescence, 18-24 h; for cell number change: measured here: cell count max response, cells fed with added oleic acid
# Method in brief: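 Laser-scanning cytometry quantifies lipid droplet accumulation (500–530 nm total intensity; droplet/cell object ratio) in oleic acid-fed (400 uM added) Drosophila S3 cells treated with a concentration series. 20 uM Triacsin C defined 100% inhibition.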
# [1] = measured here: cell number channel AC50, cells fed with added oleic acid
# [2] = measured here: lipid fluorescence (Fed channel) AC50, cells fed with added oleic acid
SMILES,cell number change,AC50 [1],AC50 [2]
CN(C)C(CNC(=O)c1ccc2ccccc2c1)c1ccco1 (configuration not stated),57%,,
CN(CC(=O)Nc1ccc(F)c(F)c1F)C(=O)C1CC(=O)N(C2CCCC2)C1 (configuration not stated),-63.1%,"8.2 µM [falling, partial curve]",
COCc1cc(C)nc2sc(C(=O)N3CCCCC3)c(N)c12,,,"0.184 µM [rising, full curve, poor fit]"
O=C(NCc1ccco1)Nc1ccc(Br)cc1Cl,,"4.11 µM [rising, single point]",
C/C(=N\NC(=O)c1nnn(-c2nonc2N)c1C)c1ccc(-c2ccccc2)cc1,5.41%,,
O=C(COC(=O)COc1ccc(Cl)cc1)Nc1ccc2c(c1)OCCO2,-41.5%,"18.4 µM [falling, single point]","18.4 µM [rising, single point]"
COC(=O)[C@H](Cc1ccccc1)NC(=O)Nc1ccc(C)cc1,-23.9%,,"4.61 µM [falling, full curve, poor fit]"
COc1cccc(N2CCN(C(=O)CN(c3ccc(C)cc3)S(=O)(=O)c3c(C)n[nH]c3C)CC2)c1,10.7%,,
CC(=O)c1ccc(NC(=O)C2CC(c3ccc(F)cc3)=NO2)cc1 (configuration not stated),-6.69%,,"0.58 µM [rising, full curve, poor fit]"
COC(=O)c1ccc(COC(=O)CNC(=O)c2ccc(C)s2)cc1,-14.2%,,"29.1 µM [falling, single point]"
CCOc1cc(C2NN=C(c3ccccc3)S2)ccc1OCc1ccc(F)cc1 (configuration not stated),51.9%,"1.64 µM [rising, full curve]","3.26 µM [rising, partial curve]"
CCc1ccc(C)c(OC(=O)c2cncc(Br)c2)c1,3.52%,,"29.1 µM [rising, single point]"
COc1ccc2[nH]c(=O)c(CN(Cc3cccnc3)C(=O)Nc3ccccc3)cc2c1,,"0.146 µM [rising, full curve, poor fit]","0.517 µM [rising, partial curve]"
CCN(CC(=O)Nc1cccc(OC)c1)C(=O)c1ccncc1,3.23%,,"0.651 µM [rising, single point]"
COc1ccc(CCNC(=O)C2c3ccccc3C(=O)N2CCC(C)C)cc1OC (configuration not stated),6.38%,"0.231 µM [rising, full curve, poor fit]",
COC(OC)C1(C)C(C#N)=C(N)Oc2c1c(=O)oc1ccccc21 (configuration not stated),27.8%,"4.61 µM [rising, full curve, poor fit]","1.64 µM [rising, full curve, poor fit]"
COc1cccc(SCC2CSc3nc4ccccc4c(=O)n32)c1 (configuration not stated),8.17%,,"0.651 µM [rising, single point]"
O=C(CN1CCC(C(O)(c2ccccc2)c2ccccc2)CC1)Nc1ccccc1,-24.1%,"0.58 µM [falling, full curve]","29.1 µM [falling, single point]"
O=C(NCc1ccccc1Cl)c1cc2ccccc2oc1=O,5.28%,,"29.1 µM [rising, single point]"
NC(=S)Nc1ccc2cc[nH]c2c1,5.61%,,"0.411 µM [falling, single point]"

SMILES,cell number change,AC50 [1],AC50 [2]
COc1cc(CC(=O)OCC(=O)Nc2ncc(Cl)cc2Cl)cc(OC)c1OC,-4.93%,,"2.31 µM [rising, full curve]"
O=C(Cc1ccc(F)cc1)Nc1ccc2[nH]ncc2c1,-0.293%,,
NC(=O)NCc1cccs1,75.5%,"2.91 µM [rising, full curve]","29.1 µM [rising, partial curve]"
CCn1c(COc2ccccc2)nnc1SCC(=O)NCc1ccco1,4.04%,,"1.16 µM [falling, full curve]"
O=C(COc1ccccc1[N+](=O)[O-])OCC(=O)N1CCC(Cc2ccccc2)CC1,4.56%,,"0.517 µM [falling, single point]"
OCCC1CN(CC2CCCCC2)CCN1CC1CCCCC1 (configuration not stated),3.94%,,"16.4 µM [rising, partial curve]"
COc1ccc(/C=N/NS(=O)(=O)c2ccc(C)cc2)cc1OC(=O)c1ccccc1,-8.67%,,"0.92 µM [rising, partial curve]"
CCCCC[n+]1ccn(C2=C([O-])c3ccccc3C(=O)/C2=N\S(=O)(=O)c2ccc(Cl)cc2)c1,,,"6.51 µM [falling, single point]"
COc1ccc(CCn2c(-c3ccc(C(C)(C)C)cc3)n[nH]c2=S)cc1OC,-0.577%,,
CCCNC(=O)NC(=O)CSc1nc2ccccc2c(=O)n1Cc1ccncc1,,,"6.51 µM [rising, single point]"
CS(=O)(=O)N1CCC(C(=O)NCC2CCCO2)CC1 (configuration not stated),,,"7.31 µM [falling, single point]"
Cc1ccc(N(C(C)C(=O)Nc2ccc(S(=O)(=O)N3CCOCC3)cc2)S(C)(=O)=O)cc1 (configuration not stated),23.3%,,"0.651 µM [falling, single point]"
CS(=O)(=O)ON=C1CCN(S(=O)(=O)c2ccccc2)CC1,-58.1%,"18.4 µM [falling, single point]","16.4 µM [falling, partial curve]"
CCOc1ccc(-c2ccc(SCC(=O)Nc3nnc(CC)s3)nn2)cc1,-17.2%,"0.82 µM [falling, single point]","0.82 µM [falling, single point]"
CCc1cc2c3c([nH]c2cc1S(=O)(=O)NCCCOC)CC(C)(C)CC3=O,-26.8%,,"23.1 µM [falling, single point]"
Cc1ccc(-c2ccc(=O)n(CC(=O)NCc3ccco3)n2)cc1,-3.16%,,
COc1ccc(N2CCN(C(=O)CSc3nc4nc(C)cc(C)n4n3)CC2)cc1,25.9%,,"8.2 µM [rising, partial curve, poor fit]"
Cc1ccc(CNC(=O)COC(=O)c2c(C)noc2C)cc1,-84.4%,"14.6 µM [falling, partial curve, poor fit]","2.31 µM [falling, partial curve]"
COc1ccc(C(=O)Nc2ccc3ccccc3c2)c(OC)c1,-31.8%,"2.06 µM [falling, full curve]","29.1 µM [falling, single point]"
CN(Cc1ccccc1)c1nc2c(c(=O)[nH]c(=O)n2C)n1Cc1ccccc1Cl,,"6.51 µM [rising, single point]","6.51 µM [rising, single point]"

SMILES,cell number change,AC50 [1],AC50 [2]
CC(C)N(NC(=O)c1cccc2ccccc12)C(C)C,,,"6.51 µM [falling, single point]"
O=C(c1ccc(Cn2c(=S)[nH]c3ccccc3c2=O)cc1)N1CCN(c2ccccn2)CC1,18.3%,,"6.51 µM [rising, single point]"
CCOc1ccc(NC(=O)CN(C)S(=O)(=O)c2cccs2)cc1,43.6%,"7.31 µM [rising, partial curve]","6.51 µM [rising, single point]"
CCc1cc2ccccc2nc1SCC(=O)N1CCN(C(=O)c2ccco2)CC1,10.5%,,"5.17 µM [rising, single point]"
CN(C(=O)COC(=O)/C=C/c1ccc(C(F)(F)F)cc1)C1CCS(=O)(=O)C1 (configuration not stated),-1.56%,,
Oc1ccc(-c2c(-c3ccsc3)sc3ccccc23)cc1,-32.7%,"16.4 µM [falling, single point]",
O=C(COc1ccccc1)N1N=C(c2cccnc2)CC1(O)C(F)(F)F (configuration not stated),37.8%,"1.84 µM [rising, partial curve, poor fit]","0.461 µM [rising, full curve]"
CCn1c(C(=O)O)c(S(=O)(=O)c2ccc(Cl)cc2)c2ccccc21,32.4%,"4.11 µM [rising, full curve, poor fit]",
CC(C)(C)c1ccc(-n2ncc3c2CCCC3NC(=O)c2cnccn2)cc1 (configuration not stated),-30.6%,"0.231 µM [falling, full curve, poor fit]","0.92 µM [falling, full curve]"
CCN(CC)c1ncnc2sc3c(c12)CCC3,10.3%,,"0.00517 µM [falling, full curve, poor fit]"
O=C(CCNS(=O)(=O)c1ccc(Cl)cc1)N1CCN(c2ccccn2)CC1,9.24%,,"0.206 µM [falling, single point]"
Cc1ccc(OCC(=O)NC(=S)Nc2ccc(Br)cn2)cc1C,10.4%,"0.0206 µM [rising, partial curve, poor fit]","0.164 µM [rising, partial curve]"
COc1ccc(C2(c3ccc(OC)cc3)NC(=O)N(CC(=O)NCC(F)(F)F)C2=O)cc1,17.1%,"3.66 µM [rising, single point]",
O=C(CN1CCOCC1)Nc1nc2ccc(F)cc2s1,15.2%,,"6.51 µM [falling, partial curve, poor fit]"
O=C(CN1CCN(c2cccc(Cl)c2)CC1)NC1CCCc2ccccc21 (configuration not stated),55.6%,"10.3 µM [rising, partial curve]",
O=C(COc1ccc2c(-c3ccccc3)cc(=O)oc2c1)N[C@H](Cc1c[nH]c2ccccc12)C(=O)O,-13.6%,,
Cc1ccc(S(=O)(=O)CC(=O)c2ccccc2)cc1,-32.1%,"29.1 µM [falling, single point]","0.00461 µM [falling, full curve, poor fit]"
N/C(Cc1ccc(Cl)cc1Cl)=N\OC(=O)Cc1cccs1,41.1%,"20.6 µM [rising, single point]","16.4 µM [rising, single point]"

# In the list so far, these have a COOH group:
SMILES,cell number change,AC50 [1],AC50 [2]
CCn1c(C(=O)O)c(S(=O)(=O)c2ccc(Cl)cc2)c2ccccc21,32.4%,"4.11 µM [rising, full curve, poor fit]",
O=C(COc1ccc2c(-c3ccccc3)cc(=O)oc2c1)N[C@H](Cc1c[nH]c2ccccc12)C(=O)O,-13.6%,,
